From paper PMC3226675 come the findings set out here.

In the assay the target is GST-fused Stau2 (rat Staufen2, isoform Stau2^59) (rat). In words: affinity purification with mass spectrometry; GST-Stau2 or GST precipitated with glutathione-Sepharose 4B from extracts of stable 293F cell lines; lysis buffer 20 mM Tris-HCl pH 7.5, 150 mM NaCl, 1 mM DTT, 0.5% Tween 20, 20 ug/ml RNase A; 2 h at 4 C; eluted with reduced glutathione; SDS-PAGE, silver staining, bands identified by mass spectrometry and by Western blotting.

Results are given in words; binding and its absence hold for the method and conditions named. Binding seen in cells or lysates may run through a third protein. These calls come from enrichment with a bait or labelling near it, and not all partners need be listed.

B1: Upf1, endogenous in 293F cells (protein, UniProt Q92900 1-1129)
chain: MSVEAYGPSSQTLTFLDTEEAELLGADTQGSEFEFTDFTLPSQTQTPPGGPGGPGGGGAGGPGGAGAGAAAGQLDAQVGPEGILQNGAVDDSVAKTSQLLAELNFEEDEEDTYYTKDLPIHACSYCGIHDPACVVYCNTSKKWFCNGRGNTSGSHIVNHLVRAKCKEVTLHKDGPLGETVLECYNCGCRNVFLLGFIPAKADSVVVLLCRQPCASQSSLKDINWDSSQWQPLIQDRCFLSWLVKIPSEQEQLRARQITAQQINKLEELWKENPSATLEDLEKPGVDEEPQHVLLRYEDAYQYQNIFGPLVKLEADYDKKLKESQTQDNITVRWDLGLNKKRIAYFTLPKTDSGNEDLVIIWLRDMRLMQGDEICLRYKGDLAPLWKGIGHVIKVPDNYGDEIAIELRSSVGAPVEVTHNFQVDFVWKSTSFDRMQSALKTFAVDETSVSGYIYHKLLGHEVEDVIIKCQLPKRFTAQGLPDLNHSQVYAVKTVLQRPLSLIQGPPGTGKTVTSATIVYHLARQGNGPVLVCAPSNIAVDQLTEKIHQTGLKVVRLCAKSREAIDSPVSFLALHNQIRNMDSMPELQKLQQLKDETGELSSADEKRYRALKRTAERELLMNADVICCTCVGAGDPRLAKMQFRSILIDESTQATEPECMVPVVLGAKQLILVGDHCQLGPVVMCKKAAKAGLSQSLFERLVVLGIRPIRLQVQYRMHPALSAFPSNIFYEGSLQNGVTAADRVKKGFDFQWPQPDKPMFFYVTQGQEEIASSGTSYLNRTEAANVEKITTKLLKAGAKPDQIGIITPYEGQRSYLVQYMQFSGSLHTKLYQEVEIASVDAFQGREKDFIILSCVRANEHQGIGFLNDPRRLNVALTRARYGVIIVGNPKALSKQPLWNHLLNYYKEQKVLVEGPLNNLRESLMQFSKPRKLVNTINPGARFMTTAMYDAREAIIPGSVYDRSSQGRPSSMYFQTHDQIGMISAGPSHVAAMNIPIPFNLVMPPMPPPGYFGQANGPAAGRGTPKGKTGRGGRQKNRFGLPGPSQTNLPNSQASQDVASQPFSQGALTQGYISMSQPSQMSQPGLSQPELSQDSYLGDEFKSQIDVALSQDSTYQGERAYQHGGVTGLSQY
Regarding B1, the binding result is on record as “binds”.

B2: Mov10, endogenous in 293F cells (protein, UniProt Q9HCE1 1-1003)
chain: MPSKFSCRQLREAGQCFESFLVVRGLDMETDRERLRTIYNRDFKISFGTPAPGFSSMLYGMKIANLAYVTKTRVRFFRLDRWADVRFPEKRRMKLGSDISKHHKSLLAKIFYDRAEYLHGKHGVDVEVQGPHEARDGQLLIRLDLNRKEVLTLRLRNGGTQSVTLTHLFPLCRTPQFAFYNEDQELPCPLGPGECYELHVHCKTSFVGYFPATVLWELLGPGESGSEGAGTFYIARFLAAVAHSPLAAQLKPMTPFKRTRITGNPVVTNRIEEGERPDRAKGYDLELSMALGTYYPPPRLRQLLPMLLQGTSIFTAPKEIAEIKAQLETALKWRNYEVKLRLLLHLEELQMEHDIRHYDLESVPMTWDPVDQNPRLLTLEVPGVTESRPSVLRGDHLFALLSSETHQEDPITYKGFVHKVELDRVKLSFSMSLLSRFVDGLTFKVNFTFNRQPLRVQHRALELTGRWLLWPMLFPVAPRDVPLLPSDVKLKLYDRSLESNPEQLQAMRHIVTGTTRPAPYIIFGPPGTGKTVTLVEAIKQVVKHLPKAHILACAPSNSGADLLCQRLRVHLPSSIYRLLAPSRDIRMVPEDIKPCCNWDAKKGEYVFPAKKKLQEYRVLITTLITAGRLVSAQFPIDHFTHIFIDEAGHCMEPESLVAIAGLMEVKETGDPGGQLVLAGDPRQLGPVLRSPLTQKHGLGYSLLERLLTYNSLYKKGPDGYDPQFITKLLRNYRSHPTILDIPNQLYYEGELQACADVVDRERFCRWAGLPRQGFPIIFHGVMGKDEREGNSPSFFNPEEAATVTSYLKLLLAPSSKKGKARLSPRSVGVISPYRKQVEKIRYCITKLDRELRGLDDIKDLKVGSVEEFQGQERSVILISTVRSSQSFVQLDLDFNLGFLKNPKRFNVAVTRAKALLIIVGNPLLLGHDPDWKVFLEFCKENGGYTGCPFPAKLDLQQGQNLLQGLSKLSPSTSGPHSHDYLPQEREGEGGLSLQVEPEWRNEL
In the case of B2, the binding result is listed as “binds”.
